# Earlier results as cited in patent US20100056536A1, “METHOD OF TREATING ATRIAL FIBRILLATION” (priority 2008, published 2010).
# Sequences of proteins named here, by UniProt entry; tags and fusion partners are left off.
# UniProt Q14524, whole entry: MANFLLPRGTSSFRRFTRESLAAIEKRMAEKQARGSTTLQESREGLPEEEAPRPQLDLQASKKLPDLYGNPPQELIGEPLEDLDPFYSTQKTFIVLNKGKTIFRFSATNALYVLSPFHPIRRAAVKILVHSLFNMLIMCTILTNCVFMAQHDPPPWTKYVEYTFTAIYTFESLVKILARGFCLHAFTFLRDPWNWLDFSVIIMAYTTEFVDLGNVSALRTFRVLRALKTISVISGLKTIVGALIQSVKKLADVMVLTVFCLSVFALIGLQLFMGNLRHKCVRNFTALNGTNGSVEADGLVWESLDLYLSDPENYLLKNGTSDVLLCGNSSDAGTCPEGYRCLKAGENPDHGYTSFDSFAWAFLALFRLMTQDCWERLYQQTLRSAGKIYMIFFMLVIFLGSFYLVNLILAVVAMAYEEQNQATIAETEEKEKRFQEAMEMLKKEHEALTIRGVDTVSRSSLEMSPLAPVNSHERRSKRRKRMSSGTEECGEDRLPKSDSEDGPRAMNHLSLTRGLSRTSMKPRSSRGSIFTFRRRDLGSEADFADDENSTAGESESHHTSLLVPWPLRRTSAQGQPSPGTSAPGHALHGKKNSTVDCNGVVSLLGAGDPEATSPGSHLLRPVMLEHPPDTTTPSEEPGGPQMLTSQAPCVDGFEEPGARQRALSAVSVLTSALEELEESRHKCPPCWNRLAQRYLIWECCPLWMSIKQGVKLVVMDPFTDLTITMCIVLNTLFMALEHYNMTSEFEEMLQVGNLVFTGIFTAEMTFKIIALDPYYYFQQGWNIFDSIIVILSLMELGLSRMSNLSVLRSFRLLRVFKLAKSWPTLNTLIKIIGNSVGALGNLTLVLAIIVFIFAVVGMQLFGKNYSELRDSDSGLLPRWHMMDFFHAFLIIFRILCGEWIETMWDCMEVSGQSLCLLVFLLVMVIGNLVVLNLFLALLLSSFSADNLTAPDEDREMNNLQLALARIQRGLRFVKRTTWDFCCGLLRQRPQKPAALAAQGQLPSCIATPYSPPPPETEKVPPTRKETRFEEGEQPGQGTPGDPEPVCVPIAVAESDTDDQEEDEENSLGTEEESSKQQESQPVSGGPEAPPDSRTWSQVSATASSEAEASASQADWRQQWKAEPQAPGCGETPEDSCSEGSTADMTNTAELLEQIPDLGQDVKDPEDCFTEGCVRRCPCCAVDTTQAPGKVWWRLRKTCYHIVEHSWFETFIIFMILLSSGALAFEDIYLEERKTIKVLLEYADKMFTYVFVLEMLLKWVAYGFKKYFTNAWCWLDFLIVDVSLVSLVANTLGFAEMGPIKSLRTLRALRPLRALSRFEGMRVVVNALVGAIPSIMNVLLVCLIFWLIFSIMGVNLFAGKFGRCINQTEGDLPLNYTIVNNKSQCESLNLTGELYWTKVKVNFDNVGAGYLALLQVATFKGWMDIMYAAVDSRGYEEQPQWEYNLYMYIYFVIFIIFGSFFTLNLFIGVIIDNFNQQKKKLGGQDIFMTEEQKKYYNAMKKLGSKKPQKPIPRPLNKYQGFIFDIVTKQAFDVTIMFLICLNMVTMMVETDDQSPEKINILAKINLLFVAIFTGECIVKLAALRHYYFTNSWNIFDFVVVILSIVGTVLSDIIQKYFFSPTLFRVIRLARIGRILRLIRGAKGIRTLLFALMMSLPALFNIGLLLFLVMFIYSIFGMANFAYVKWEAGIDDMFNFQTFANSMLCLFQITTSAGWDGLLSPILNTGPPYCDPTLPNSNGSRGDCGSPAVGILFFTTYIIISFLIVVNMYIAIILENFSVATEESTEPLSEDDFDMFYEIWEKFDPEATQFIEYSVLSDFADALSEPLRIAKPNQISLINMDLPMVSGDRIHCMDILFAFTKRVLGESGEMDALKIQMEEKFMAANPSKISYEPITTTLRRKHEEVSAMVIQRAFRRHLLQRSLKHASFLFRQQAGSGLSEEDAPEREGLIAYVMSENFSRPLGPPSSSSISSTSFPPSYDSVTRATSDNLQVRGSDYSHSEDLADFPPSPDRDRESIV
# Some of these results come from one statement about several compounds together.
# Molecular target: sodium channel (Homo sapiens, UniProt Q14524)
# Settings: cited from earlier work
compound,measurement,value
"COc1ccccc1OCC(O)CN1CCN(CC(=O)Nc2c(C)cccc2C)CC1 (racemic) [Ranolazine, (±)-N-(2,6-dimethylphenyl)-4-[2-hydroxy-3-(2-methoxyphenoxy)-propyl]-1-piperazineacetamide]",unbinding τ (dissociation from the sodium channel),0.2 to 1.6 s
